Experiment [1] addresses mCh-tensin1-cBAK (human) (UniProt Q9HBL0). Briefly: mitochondrial targeting and recruitment assay; NIH3T3 cells co-expressing an mCherry- and cBAK-tagged bait at mitochondria with a GFP-tagged partner; co-localisation at mitochondria by fluorescence microscopy.
For experiment [2], the target named is T1, mCh-tensin2-cBAK (human) (UniProt Q63HR2).
T1 sequence: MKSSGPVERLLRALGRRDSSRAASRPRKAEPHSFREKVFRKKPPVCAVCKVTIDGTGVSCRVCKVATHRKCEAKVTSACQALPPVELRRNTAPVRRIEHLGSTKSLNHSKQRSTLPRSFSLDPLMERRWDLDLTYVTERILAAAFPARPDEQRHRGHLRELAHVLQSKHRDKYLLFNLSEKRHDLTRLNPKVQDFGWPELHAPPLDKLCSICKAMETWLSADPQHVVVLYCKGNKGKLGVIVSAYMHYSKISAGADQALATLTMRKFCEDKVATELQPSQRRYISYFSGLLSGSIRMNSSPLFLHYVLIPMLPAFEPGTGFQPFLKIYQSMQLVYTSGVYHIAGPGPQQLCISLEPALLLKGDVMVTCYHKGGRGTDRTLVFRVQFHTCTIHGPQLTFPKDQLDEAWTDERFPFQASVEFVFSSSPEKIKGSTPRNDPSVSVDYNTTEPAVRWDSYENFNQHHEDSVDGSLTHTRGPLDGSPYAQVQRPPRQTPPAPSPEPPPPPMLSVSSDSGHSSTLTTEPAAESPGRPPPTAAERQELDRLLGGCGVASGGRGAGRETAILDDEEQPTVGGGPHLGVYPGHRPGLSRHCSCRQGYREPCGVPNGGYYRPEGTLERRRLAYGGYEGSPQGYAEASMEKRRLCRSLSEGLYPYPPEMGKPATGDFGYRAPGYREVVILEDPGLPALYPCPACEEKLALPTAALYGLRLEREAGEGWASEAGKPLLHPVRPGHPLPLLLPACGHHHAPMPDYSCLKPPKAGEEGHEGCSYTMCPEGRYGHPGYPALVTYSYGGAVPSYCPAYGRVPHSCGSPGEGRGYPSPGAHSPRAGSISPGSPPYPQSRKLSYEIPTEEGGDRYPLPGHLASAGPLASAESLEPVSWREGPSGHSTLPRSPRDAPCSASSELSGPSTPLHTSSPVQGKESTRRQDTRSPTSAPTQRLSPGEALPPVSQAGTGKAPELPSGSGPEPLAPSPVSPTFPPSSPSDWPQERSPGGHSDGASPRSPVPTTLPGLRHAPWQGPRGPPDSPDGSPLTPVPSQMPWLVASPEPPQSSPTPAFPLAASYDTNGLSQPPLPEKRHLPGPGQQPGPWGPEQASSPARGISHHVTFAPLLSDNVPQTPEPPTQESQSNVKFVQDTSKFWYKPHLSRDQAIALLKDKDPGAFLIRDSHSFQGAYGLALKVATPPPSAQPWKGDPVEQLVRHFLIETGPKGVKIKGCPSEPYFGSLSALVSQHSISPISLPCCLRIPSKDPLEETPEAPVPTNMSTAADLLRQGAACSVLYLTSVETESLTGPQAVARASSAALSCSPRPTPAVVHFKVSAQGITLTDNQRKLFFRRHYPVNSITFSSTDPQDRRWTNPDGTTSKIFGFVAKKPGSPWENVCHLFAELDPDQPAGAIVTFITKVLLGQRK
The experiment is described as above.

By UniProt entry, the sequences of proteins in these tests, tags left out. Where a name states a change or a piece, a line headed by the entry shows the natural chain unless it says otherwise.
UniProt Q9HBL0: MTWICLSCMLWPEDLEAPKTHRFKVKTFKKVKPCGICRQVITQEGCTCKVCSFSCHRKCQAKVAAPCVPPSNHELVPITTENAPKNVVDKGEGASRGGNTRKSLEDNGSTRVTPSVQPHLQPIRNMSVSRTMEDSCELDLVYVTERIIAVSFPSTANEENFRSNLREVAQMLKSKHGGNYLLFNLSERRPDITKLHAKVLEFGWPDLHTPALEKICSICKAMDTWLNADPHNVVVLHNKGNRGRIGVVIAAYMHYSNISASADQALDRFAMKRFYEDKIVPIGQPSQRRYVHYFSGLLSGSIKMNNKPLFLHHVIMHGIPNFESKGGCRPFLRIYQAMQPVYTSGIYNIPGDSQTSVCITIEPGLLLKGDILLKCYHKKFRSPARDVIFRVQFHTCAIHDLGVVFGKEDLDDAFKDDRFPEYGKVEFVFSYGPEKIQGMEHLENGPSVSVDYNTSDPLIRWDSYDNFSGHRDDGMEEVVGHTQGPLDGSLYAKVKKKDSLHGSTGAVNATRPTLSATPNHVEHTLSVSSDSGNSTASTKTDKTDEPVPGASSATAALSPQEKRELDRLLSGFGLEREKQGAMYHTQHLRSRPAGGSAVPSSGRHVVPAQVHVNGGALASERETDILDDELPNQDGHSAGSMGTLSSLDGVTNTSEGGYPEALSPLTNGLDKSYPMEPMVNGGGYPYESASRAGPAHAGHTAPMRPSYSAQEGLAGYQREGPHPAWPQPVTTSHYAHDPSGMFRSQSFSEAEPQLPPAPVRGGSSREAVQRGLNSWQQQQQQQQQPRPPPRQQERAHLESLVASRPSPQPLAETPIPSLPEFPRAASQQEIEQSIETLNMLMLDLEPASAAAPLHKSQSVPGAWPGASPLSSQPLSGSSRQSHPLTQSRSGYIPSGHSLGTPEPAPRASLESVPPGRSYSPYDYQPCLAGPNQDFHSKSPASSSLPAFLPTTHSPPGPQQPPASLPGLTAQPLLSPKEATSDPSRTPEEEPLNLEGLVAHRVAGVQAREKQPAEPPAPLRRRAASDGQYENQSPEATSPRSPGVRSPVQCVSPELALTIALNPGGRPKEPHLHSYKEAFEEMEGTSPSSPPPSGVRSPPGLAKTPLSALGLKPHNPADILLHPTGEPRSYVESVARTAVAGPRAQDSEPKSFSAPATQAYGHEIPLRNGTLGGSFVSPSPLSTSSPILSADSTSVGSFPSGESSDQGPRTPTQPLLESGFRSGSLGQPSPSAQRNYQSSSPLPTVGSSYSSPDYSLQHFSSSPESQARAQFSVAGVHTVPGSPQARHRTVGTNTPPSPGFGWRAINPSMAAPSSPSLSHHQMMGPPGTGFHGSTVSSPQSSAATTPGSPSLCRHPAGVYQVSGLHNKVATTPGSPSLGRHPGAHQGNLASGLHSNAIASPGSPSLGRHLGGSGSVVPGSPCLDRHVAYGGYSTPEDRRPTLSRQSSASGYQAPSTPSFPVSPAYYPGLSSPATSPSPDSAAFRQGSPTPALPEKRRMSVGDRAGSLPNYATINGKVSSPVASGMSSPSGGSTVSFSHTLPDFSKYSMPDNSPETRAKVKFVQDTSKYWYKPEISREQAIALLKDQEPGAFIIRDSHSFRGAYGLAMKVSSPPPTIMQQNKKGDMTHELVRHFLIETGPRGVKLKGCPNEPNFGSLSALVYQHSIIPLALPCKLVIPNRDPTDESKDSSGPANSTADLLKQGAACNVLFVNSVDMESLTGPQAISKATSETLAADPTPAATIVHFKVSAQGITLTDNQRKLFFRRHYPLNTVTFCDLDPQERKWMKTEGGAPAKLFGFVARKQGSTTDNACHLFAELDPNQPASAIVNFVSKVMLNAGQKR
UniProt Q05397: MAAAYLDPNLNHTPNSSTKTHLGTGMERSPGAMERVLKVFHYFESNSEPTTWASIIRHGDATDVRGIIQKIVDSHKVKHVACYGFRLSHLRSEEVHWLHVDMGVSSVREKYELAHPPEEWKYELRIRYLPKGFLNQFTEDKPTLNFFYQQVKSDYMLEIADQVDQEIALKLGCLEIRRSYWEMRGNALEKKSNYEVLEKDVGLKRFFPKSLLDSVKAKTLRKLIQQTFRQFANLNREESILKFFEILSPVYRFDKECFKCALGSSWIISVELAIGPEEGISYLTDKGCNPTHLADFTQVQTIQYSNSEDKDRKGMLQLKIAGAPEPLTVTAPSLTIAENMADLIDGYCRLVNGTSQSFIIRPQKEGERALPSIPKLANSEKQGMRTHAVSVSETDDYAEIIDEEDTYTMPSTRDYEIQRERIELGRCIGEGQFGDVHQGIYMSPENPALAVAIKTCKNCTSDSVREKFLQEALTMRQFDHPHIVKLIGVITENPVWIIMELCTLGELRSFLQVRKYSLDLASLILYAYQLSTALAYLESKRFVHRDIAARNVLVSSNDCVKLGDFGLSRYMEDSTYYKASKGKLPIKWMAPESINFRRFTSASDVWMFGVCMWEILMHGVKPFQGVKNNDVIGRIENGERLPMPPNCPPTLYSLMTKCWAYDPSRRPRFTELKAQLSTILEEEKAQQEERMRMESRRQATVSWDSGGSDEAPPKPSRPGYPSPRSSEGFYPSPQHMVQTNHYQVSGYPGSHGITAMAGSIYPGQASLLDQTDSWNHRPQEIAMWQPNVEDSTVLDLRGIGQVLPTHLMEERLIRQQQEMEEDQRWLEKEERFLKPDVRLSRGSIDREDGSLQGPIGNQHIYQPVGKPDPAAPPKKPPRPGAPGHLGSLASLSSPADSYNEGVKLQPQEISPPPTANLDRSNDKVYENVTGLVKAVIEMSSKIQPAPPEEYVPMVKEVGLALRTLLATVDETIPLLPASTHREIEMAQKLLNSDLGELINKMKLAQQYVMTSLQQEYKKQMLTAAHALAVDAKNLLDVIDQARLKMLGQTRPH
UniProt Q8VI36: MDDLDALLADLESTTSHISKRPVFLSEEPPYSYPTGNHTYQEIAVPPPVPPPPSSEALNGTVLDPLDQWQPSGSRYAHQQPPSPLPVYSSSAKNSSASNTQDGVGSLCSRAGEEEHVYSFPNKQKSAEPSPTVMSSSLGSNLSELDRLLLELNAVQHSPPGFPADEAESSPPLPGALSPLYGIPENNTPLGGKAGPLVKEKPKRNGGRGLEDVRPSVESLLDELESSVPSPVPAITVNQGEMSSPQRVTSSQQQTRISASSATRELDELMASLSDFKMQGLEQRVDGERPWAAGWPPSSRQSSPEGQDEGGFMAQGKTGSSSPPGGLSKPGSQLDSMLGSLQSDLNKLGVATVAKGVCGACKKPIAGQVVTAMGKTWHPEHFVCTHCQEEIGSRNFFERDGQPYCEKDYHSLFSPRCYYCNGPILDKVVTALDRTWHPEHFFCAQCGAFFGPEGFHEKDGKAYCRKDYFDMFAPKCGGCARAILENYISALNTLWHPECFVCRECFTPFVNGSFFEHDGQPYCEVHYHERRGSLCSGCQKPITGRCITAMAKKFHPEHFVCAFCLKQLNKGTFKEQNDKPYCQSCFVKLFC
UniProt P49023: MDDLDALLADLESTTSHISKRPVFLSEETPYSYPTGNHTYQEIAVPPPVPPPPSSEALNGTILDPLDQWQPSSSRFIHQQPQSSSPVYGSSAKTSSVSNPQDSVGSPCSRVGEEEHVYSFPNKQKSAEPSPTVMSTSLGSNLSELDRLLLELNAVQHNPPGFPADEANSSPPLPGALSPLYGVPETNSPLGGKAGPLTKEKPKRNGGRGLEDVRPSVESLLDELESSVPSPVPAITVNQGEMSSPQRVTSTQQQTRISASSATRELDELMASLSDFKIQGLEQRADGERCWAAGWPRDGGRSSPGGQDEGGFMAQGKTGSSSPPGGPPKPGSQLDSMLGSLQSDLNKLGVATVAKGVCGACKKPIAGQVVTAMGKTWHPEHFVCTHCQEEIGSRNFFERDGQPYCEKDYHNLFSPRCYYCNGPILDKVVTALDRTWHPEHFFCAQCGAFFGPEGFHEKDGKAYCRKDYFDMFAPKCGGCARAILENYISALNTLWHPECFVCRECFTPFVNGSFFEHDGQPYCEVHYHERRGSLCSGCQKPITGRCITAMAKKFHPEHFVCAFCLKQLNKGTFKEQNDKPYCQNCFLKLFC
UniProt Q64727: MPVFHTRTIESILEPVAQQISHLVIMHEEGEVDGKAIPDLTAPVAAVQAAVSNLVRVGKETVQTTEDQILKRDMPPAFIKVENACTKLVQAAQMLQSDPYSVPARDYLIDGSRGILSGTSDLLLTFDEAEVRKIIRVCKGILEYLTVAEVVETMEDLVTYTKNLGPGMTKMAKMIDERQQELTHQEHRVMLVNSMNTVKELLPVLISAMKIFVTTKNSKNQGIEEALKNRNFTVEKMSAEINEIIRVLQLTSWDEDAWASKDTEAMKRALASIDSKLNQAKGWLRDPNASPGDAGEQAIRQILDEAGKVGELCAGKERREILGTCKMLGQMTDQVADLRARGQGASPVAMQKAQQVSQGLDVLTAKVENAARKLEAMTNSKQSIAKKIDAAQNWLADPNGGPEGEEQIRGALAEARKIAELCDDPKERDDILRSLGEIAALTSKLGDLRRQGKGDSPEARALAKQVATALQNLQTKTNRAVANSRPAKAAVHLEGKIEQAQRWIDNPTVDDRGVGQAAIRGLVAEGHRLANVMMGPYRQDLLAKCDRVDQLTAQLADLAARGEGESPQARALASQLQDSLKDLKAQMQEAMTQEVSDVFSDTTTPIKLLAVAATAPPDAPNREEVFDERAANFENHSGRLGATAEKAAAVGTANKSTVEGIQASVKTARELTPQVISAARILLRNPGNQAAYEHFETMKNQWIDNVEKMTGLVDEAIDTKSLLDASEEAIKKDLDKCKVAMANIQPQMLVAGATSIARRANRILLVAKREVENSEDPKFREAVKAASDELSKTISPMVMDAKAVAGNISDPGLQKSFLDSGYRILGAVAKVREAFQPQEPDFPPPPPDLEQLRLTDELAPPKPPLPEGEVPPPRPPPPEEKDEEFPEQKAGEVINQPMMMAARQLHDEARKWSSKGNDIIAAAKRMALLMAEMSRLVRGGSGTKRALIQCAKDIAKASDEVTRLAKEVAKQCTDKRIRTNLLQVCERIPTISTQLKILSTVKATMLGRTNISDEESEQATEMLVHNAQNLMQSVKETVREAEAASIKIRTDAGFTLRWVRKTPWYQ
UniProt Q13418: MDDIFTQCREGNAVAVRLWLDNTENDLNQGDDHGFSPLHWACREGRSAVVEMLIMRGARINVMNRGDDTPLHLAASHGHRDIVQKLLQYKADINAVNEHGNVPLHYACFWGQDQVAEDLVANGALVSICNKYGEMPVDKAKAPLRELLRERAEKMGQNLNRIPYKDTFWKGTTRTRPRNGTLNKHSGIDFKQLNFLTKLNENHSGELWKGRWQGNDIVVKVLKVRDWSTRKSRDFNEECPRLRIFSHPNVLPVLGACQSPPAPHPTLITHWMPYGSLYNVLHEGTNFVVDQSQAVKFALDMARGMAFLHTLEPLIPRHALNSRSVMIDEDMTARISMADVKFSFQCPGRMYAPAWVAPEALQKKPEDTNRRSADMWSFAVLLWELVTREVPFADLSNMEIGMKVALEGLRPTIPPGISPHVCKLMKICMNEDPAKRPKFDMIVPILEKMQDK

The target of experiment [3] is mCh-tensin1-cBAK (human) (UniProt Q9HBL0). The experiment is described as follows: mitochondrial targeting and recruitment assay; NIH3T3 cells expressing an mCherry- and cBAK-tagged tensin at mitochondria; endogenous partner immunostained.
In experiment [4] the target is mCh-talinFL-cBAK. Briefly: mitochondrial targeting and recruitment assay; NIH3T3 cells co-expressing an mCherry- and cBAK-tagged bait at mitochondria with a GFP-tagged partner; co-localisation at mitochondria by fluorescence microscopy.

Experimental findings from paper PMC9462884, “Tensin3 interaction with talin drives the formation of fibronectin-associated fibrillar adhesions” (The Journal of Cell Biology, 2022) are described below.

No constants are given. Whether binding was seen depends on the method and setting. For part of these data: Binding can be weak; no strength is given. For part of these data: Where a sequence is shown, tags or fusion partners need not be part of it.

For GFP-vinculin (from UniProt P12003-1), the binding result is “binds” in experiment [1] and “no binding” in experiment [2].

As for GFP-FAK (from UniProt Q05397 1-1052), the binding result in experiment [1] is recorded as “binds”.

In the case of “endogenous paxillin (from UniProt Q8VI36 1-591)”, the binding result in experiment [3] is listed as “binds”.

For the molecule GFP-talin1 (from UniProt P26039 1-2541), in experiment [1], the binding entry is “binds”.

With “GFP-paxillin (from UniProt P49023 1-591)”, the binding result in experiment [1] is “binds”.

Consider “endogenous talin1 (from UniProt P26039 1-2541)”, for which the binding entry in experiment [3] is on record as “binds”.

As for “endogenous vinculin (from UniProt Q64727 1-1066)”, in experiment [3], the binding result is “binds”.

As for GFP-talin2 (from UniProt Q9Y4G6 1-2542), in experiment [1], the binding entry is recorded as “binds”.

With GFP-ILK (from UniProt Q13418 1-452), the binding entry in experiment [1] is on record as “binds”.

B1: GFP-tensin3-FL∆H1 (protein, UniProt Q68CZ2)
chain: MEEGHGLDLTYITERIIAVSFPAGCSEESYLHNLQEVTRMLKSKHGDNYLVLNLSEKRYDLTKLNPKIMDVGWPELHAPPLDKMCTICKAQESWLNSNLQHVVVIHCRGGKGRIGVVISSYMHFTNVSASADQALDRFAMKKFYDDKVSALMQPSQKRYVQFLSGLLSGSVKMNASPLFLHFVILHGTPNFDTGGVCRPFLKLYQAMQPVYTSGIYNVGPENPSRICIVIEPAQLLKGDVMVKCYHKKYRSATRDVIFRLQFHTGAVQGYGLVFGKEDLDNASKDDRFPDYGKVELVFSATPEKIQGSEHLYNDHGVIVDYNTTDPLIRWDSYENLSADGEVLHTQGPVDGSLYAKVRKKSSSDPGIPGGPQAIPATNSPDHSDHTLSVSSDSGHSTASARTDKTEERLAPGTRRGLSAQEKAELDQLLSGFGLEDPGSSLKEMTDARSKYSGTRHVVPAQVHVNGDAALKDRETDILDDEMPHHDLHSVDSLGTLSSSEGPQSAHLGPFTCHKSSQNSLLSDGFGSNVGEDPQGTLVPDLGLGMDGPYERERTFGSREPKQPQPLLRKPSVSAQMQAYGQSSYSTQTWVRQQQMVVAHQYSFAPDGEARLVSRCPADNPGLVQAQPRVPLTPTRGTSSRVAVQRGVGSGPHPPDTQQPSPSKAFKPRFPGDQVVNGAGPELSTGPSPGPTFEPIPTHMNALGSQANGSVSPDSVGGGLRASSRLPDTGEGPSRATGRQGSSAEQPLGGRLRKLSLGQYDNDAGGQLPFSKCAWGKAGVDYAPNLPPFPSPADVKETMTPGYPQDLDIIDGRILSSKESMCSTPAFPVSPETPYVKTALRHPPFSPPEPPLSSPASQHKGGREPRSCPETLTHAVGMSESPIGPKSTMLRADASSTPSFQQAFASSCTISSNGPGQRRESSSSAERQWVESSPKPMVSLLGSGRPTGSPLSAEFSGTRKDSPVLSCFPPSELQAPFHSHELSLAEPPDSLAPPSSQAFLGFGTAPVGSGLPPEEDLGALLANSHGASPTPSIPLTATGAADNGFLSHNFLTVAPGHSSHHSPGLQGQGVTLPGQPPLPEKKRASEGDRSLGSVSPSSSGFSSPHSGSTISIPFPNVLPDFSKASEAASPLPDSPGDKLVIVKFVQDTSKFWYKADISREQAIAMLKDKEPGSFIVRDSHSFRGAYGLAMKVATPPPSVLQLNKKAGDLANELVRHFLIECTPKGVRLKGCSNEPYFGSLTALVCQHSITPLALPCKLLIPERDPLEEIAESSPQTAANSAAELLKQGAACNVWYLNSVEMESLTGHQAIQKALSITLVQEPPPVSTVVHFKVSAQGITLTDNQRKLFFRRHYPVNSVIFCALDPQDRKWIKDGPSSKVFGFVARKQGSATDNVCHLFAEHDPEQPASAIVNFVSKVMIGSPKKV
Turning to B1, the binding entry in experiment [4] is “no binding”.

B2: GFP-KANK2 (protein, UniProt Q63ZY3 1-851)
chain: MAQVLHVPAPFPGTPGPASPPAFPAKDPDPPYSVETPYGYRLDLDFLKYVDDIEKGHTLRRVAVQRRPRLSSLPRGPGSWWTSTESLCSNASGDSRHSAYSYCGRGFYPQYGALETRGGFNPRVERTLLDARRRLEDQAATPTGLGSLTPSAAGSTASLVGVGLPPPTPRSSGLSTPVPPSAGHLAHVREQMAGALRKLRQLEEQVKLIPVLQVKLSVLQEEKRQLTVQLKSQKFLGHPTAGRGRSELCLDLPDPPEDPVALETRSVGTWVRERDLGMPDGEAALAAKVAVLETQLKKALQELQAAQARQADPQPQAWPPPDSPVRVDTVRVVEGPREVEVVASTAAGAPAQRAQSLEPYGTGLRALAMPGRPESPPVFRSQEVVETMCPVPAAATSNVHMVKKISITERSCDGAAGLPEVPAESSSSPPGSEVASLTQPEKSTGRVPTQEPTHREPTRQAASQESEEAGGTGGPPAGVRSIMKRKEEVADPTAHRRSLQFVGVNGGYESSSEDSSTAENISDNDSTENEAPEPRERVPSVAEAPQLRPAGTAAAKTSRQECQLSRESQHIPTAEGASGSNTEEEIRMELSPDLISACLALEKYLDNPNALTERELKVAYTTVLQEWLRLACRSDAHPELVRRHLVTFRAMSARLLDYVVNIADSNGNTALHYSVSHANFPVVQQLLDSGVCKVDKQNRAGYSPIMLTALATLKTQDDIETVLQLFRLGNINAKASQAGQTALMLAVSHGRVDVVKALLACEADVNVQDDDGSTALMCACEHGHKEIAGLLLAVPSCDISLTDRDGSTALMVALDAGQSEIASMLYSRMNIKCSFAPMSDDESPTSSSAEE
As for B2, the binding entry in experiment [1] is “binds”.
